Results taken from patent US20120282637A1.

B1: 253 RAGE-1 (antibody, V domains shown)
VH: QVQLQQSGPELVKPGASVRISCKASGYTFTDYYIHWVKQRPGQGLEWIGWIYPGNVITKYNEKFKGKATLTADKSSSTAYMQLSSLTSEDSAVYFCARYDYDYAMDYWGQGTSVTVSS
VL: DIVMSQSPSSLAVSVGEKVTMSCKSSQTLLYSSNQKNYLAWYQQKPGQSLKLLIYWASTRESGVPDRFAGSGSGTDFTLTISSVKAEDLAVYYCQQYFGYPYTFGGGTKLEIK
B2: 56 RAGE-1 (antibody, V domains shown)
VH: QVQLQQSGPELVKPGASVRISCKASGYTFTSYFIHWVKQRPGQGLEWIGWIYPGNVNTKYNEKFKDKATLTADKSSSTAYMQLSNLTSEDSAVYFCVRGQLGDYWGQGITLTVSS
VL: DIVMTQSQKFMSTSVGDRVSVTCKASQNVGINVAWYQQKPGQSPKALIYSASYRYSGVPDRFTGSGSGTDFTLIISNVQSEDLAEYFCQQYNNYPRTFGGGTKLEIK
B3: 259 RAGE-1 (antibody, V domains shown)
VH: QVQLQQSGAELVRPGTSVKVSCKASGYAFTNYLIDWVNQRPGQGLEWIGVINPGSGGTNYNEKFTGKATLTADKSSSTAYMQLSSLTSDDSAVYFCARRRVDTMDYWGQGTSVTVSS
VL: QAVVTQESALTTSPGETVTLTCRSSTGAVTTSNYANWVQEKPDHLFTGLIGGTNNRAPGVPARFSGSLIGDKAALTITGAQTEDEAIYFCALWYSNHWVFGGGTKLTVL
B4: 152 RAGE-1 (antibody, V domains shown)
VH: DVQLQESGPDLVKPSQSLSLTCTVTGYSITSGYSWHWIRQFPGNKLEWMGYIHYSGSTNYNPSLKSRISITRDTSKNQFFLQLNSVTTEDTATYYCARGGDFAYWGQGTLVTVSA
VL: DIVLTQSPASLAVSLGQRATISCRASKSVGTSDSSYMHWYQQKPGQPPKLLIYLASNLESGVPARFSGSGSGTDFTLNIHPVEEEDAATYYCQHSRELYTFGGGTKLEIK
B5: 283 RAGE-1 (antibody, V domains shown)
VH: QVQLQQSGAELVRPGTSVKVSCKASGYAFTNYLIEWVKQRPGQGLEWIGVINPGSGGTNYSERFKGKATLTADKSSSTAYMQLSSLTSDDSAVYFCASYRYDGGMDYWGQGTSVTVSS
VL: B3 VL with G51R
B6: 326 RAGE-1 (antibody, V domains shown)
VH: EVKLVESGGGLVKPGGSLKLSCAASGFAFSSYDMSWVRQTPEKRLEWVATISSGGSYTSYPDSVQGRFTISRDNARNTLYLQMSSLRSEDTALYYCASSQLPPYAMDYWGQGTSVTVSS
VL: DIVMTQSQKFMSTSVGDRVSITCKASQNVGTAVAWYQQKPGQSPKLLIYSASNRYTGVPDRFTGSGSGTDFTLTISNMQSEDLADYFCQQYSSYPLLTFGAGTKLELK
B7: 499 RAGE-1 (antibody, V domains shown)
VH: EVQLQQSGTVLARPGASVKMSCKASGYTFTSYWMHWVKQRPGQGLEWIGAIYPGDSDTYYNQKFKGKAKLTAVTSTSTAYMELSSLTNEDSAVYYCTRNWDYWGQGTTLTVSS
VL: DIVMTQSHKFMSTSVGDRVSITCKASQDVSTAVAWYQQKPGQSPKLLIYSASYRYTGVPDRFTGSGSGTDFTFTISSVQAEDLAVYYCQQHYNTPRTFGGGTKLEIK
B8: 501-4 RAGE-1 (antibody, V domains shown)
VH: EVMLVDSGGGLVKPGGSLKLSCAASGFTFRSYAMSWVRQTPEKRLEWVATISSGGSYTYYPDSVRGRFTTSRDNGKNTLYLQMSSLRSEDTAMYYCARHGGNYSAWFTYWGQGTLVTVSA
VL: B3 VL with G59D
B9: 529 RAGE-1 (antibody, V domains shown)
VH: EIQLQQTGPELVKPGASVKISCKASGYSFTDYIMLWVKQSHGKSLEWIGNINPYYGSTFYNLKFKGKATLTVDKSSSTAYMQLNSLTSEDSAVYYCARSDYWYFDVWGAGTTVTVSS
VL: B3 VL with A57S, W98L
B10: 95 RAGE-1 (antibody, V domains shown)
VH: QVQLQQPGAELVKPGASVKLSCKASGYTFTSYWMHWVKQRPGQGLEWIGESNPSNGRTNYNEKFKNKATLTVDKSSSTAYMQLSSLTSEDSAVYYCARAPYYGFDYWGQGTTLTVSS
VL: B3 VL with I50T
B11: 130 RAGE-1 (antibody, V domains shown)
VH: EVQLVESGGGLVKPGGSLKLSCAASGFTFSSYVMSWVRQSPEKRLEWVAEISSGGSYTYYPDTVTGRFTISRDNDKNTLYLEMSSLRSEDTAMYYCARPPYGKDAMDYWGQGTSVTVSS
VL: QIVLTQSPAIMSASPGEKVTMTCSASSSVSYMHWYQQKSGTSPKRWISDTSKLASGVPARFSGSGSGTSYSLTISSMEAEDAATYYCQQWSSNPPTFGGGTKLEIK
B12: 158 RAGE-1 (antibody, V domains shown)
VH: QIQLVQSGPELKKPGETVKISCKASGYTFTDYSMHWVKQAPGKGLKWMGWINTETGEPTYADDFKGRFAFSLETSASTAYLLINNLKTEDTATYFCARDYLYYYAMDYWGQGTSVTVSS
VL: DVVLTQTPLSLPVNIGDQASISCKSTKSLLNSDGFTYLDWYLQKPGQSPQLLIYLVSNRFSGVPDRFSGSGSGTDFTLKISRVEAEDLGVYYCFQSNYLPLTFGGGTKVEIK
B13: 140 RAGE-1 (antibody, V domains shown)
VH: QVQLQQPGAELVKPGASVRLSCKASGYTFTSYWMHWVKQRPGQGLEWIGEINPSNGRTNYNEKFKSKATLTVDKSSSTAYMQLSSLTSEDSAVYYCARDGLGYRPIAMDYWGQGTSVTVSS
VL: QIVLTQSPAIMSASPGEKVTISCSASSSVSYMYWYQQKPGSSPKPWIYRTSNLASGVPARFSGSGSGTSYSLTISSMEAEDAATYYCQQYHSYPPMYTFGGGTKLEIK
B14: 173 RAGE-1 (antibody, V domains shown)
VH: EVKLEESGGGLVQPGGSMKLSCVASGFTFSNYWMNWVRQSPEKGLEWVAEIRLKSNNYATHYAESVKGRFTISRDDSKSSVYLQMNDLRAEDPGIYYCIRDYGNYAMDHWGQGTSVTVSS
VL: B2 VL with I31T, I74T, N93S, R96L, G100A, I106L
B15: 184 RAGE-1 (antibody, V domains shown)
VH: QVQLQQSGAELVRPGTSVKVSCKASGYAFTNYLIEWVKQRPGQGLEWIGMINPGSGGTNYNEKFKGKATLTADKSSSTAYMQLSSLTSDDSAVYFCARGRGGHYRYFDVWGAGTTVTVSS
VL: DIVLTQSPASLAVSLGQRATISCRASKSVSTSGYSYMHWYQQKPGQPPKLLIYLASHLESGVPARFSGSGSGTDFSLNIHPVEEEDAATYYCQHSRELPWTFGGGTKLEIK
B16: 210 RAGE-1 (antibody, V domains shown)
VH: EIQLQQTGPELVKPGASVKISCKASGYSFTDYIMVWVKQSHGKSLEWIGTINPYYGSTSYNLKFKGKATLTVDKSSSTANMQLNSLTSEDSAVYYCARLRLYAMDYWGQGTSVTVSS
VL: QAVVTQESALTTSPGETVTLTCRSSTGAVTTSNYANWVQEKPDHLFTGLIGGTNNRAPGVPARFSGSLIGDKAALTITGAQTEDEAIYFCALWYSNHFWVFGGGTKLTVL
B17: 240 RAGE-1 (antibody, V domains shown)
VH: B12 VH with L82Q, T88N
VL: B12 VL with N14S, R66S, L99F, K108T, V109L
B18: 250 RAGE-1 (antibody, V domains shown)
VH: B14 VH with D87N, P93T, Y97F, H109Y
VL: B2 VL with I31T, I74T, Y86F, N93S, R96L, G100A, I106L
B19: 316 RAGE-1 (antibody, V domains shown)
VH: QVQLQQSGPELVRPGASVKMSCKASGYTFTSYWMHWVKQRPGQGLEWIGMIDPSNSETRLNQKFKDKATLNVDKSSNTAYMQLSSLTSEDSAVYYCARNFYGSSLRVWGAGTTVTVSS
VL: B15 VL with T31I, M37L, Y40N, P47S, H57N, S76T, W100Y
B20: 347 RAGE-1 (antibody, V domains shown)
VH: QVQLQQSGAELAKPGASVKMSCRASGYTFTDYWMHWVKQRPGQGLEWIGFINPSTVYTEYIPKFKDKATLTADKSSSTAYMQLSSLTSEDSAVYYCARSDGGWYFDVWGAGTTVTVSS
VL: DIQMTQSSSYLSVSLGGRVTITCKASDRINYWLAWYQQKPGNAPRLLISGATTLETGVPSRFSGSGSGKDYTLSITSLQTEDVATYYCQQYWSTPYTFGGGTKLELK
B21: 183 RAGE-1 (antibody, V domains shown)
VH: EVQLQQSGTVLARPGASVKMSCKASGYSFTSYWMHWVKQRPGQGLEWIGAIFPGNSDTTYNQKFKGKAKLTAVTSASTAYMELSSLTNEDSAVYYCTGLRRGFPYWGQGTLVTVSV
VL: NIVMTQSPKSMSMSVGERVTLSCKASENVGTYVSWYQQKPEQSPKLLIYGASNRYTGVPDRFTGSGSATDFTLTISSVQAEDLADYHCGQSYSYPYTFGGGTKLEIK

The binders below were run against Cyno sRAGE (Cyno) (assay: Human/Cyno/rat cross reactivity, Table 1).

binding, binds:
B1, B2

These binders were tested against Cyno sRAGE (Cyno) (assay: Human/Cyno/rat/mouse cross reactivity, Table 1).

binding, binds:
B2

The binders below were run against Cyno sRAGE (Cyno) (assay: ELISA, O.D. 450 nm, one bar per species; plate format and antibody concentration not given).

binding, binds:
B1, B3, B4, B5, B6, B7, B8, B9, B10, B11, B12, B13, B14, B15, B16, B17, B18, B19, B20, B21, B2

Positions count from the first letter of the chain named. No constants are given. Whether binding was seen depends on the method and setting. A result given as binding can be weak or reduced; the word gives no strength.
